For 3 substances, binding results are on record in PMC4703963.

By UniProt entry, the sequences of proteins in these tests, tags left out. Where a name states a change or a piece, a line headed by the entry shows the natural chain unless it says otherwise.
UniProt Q9GZT9: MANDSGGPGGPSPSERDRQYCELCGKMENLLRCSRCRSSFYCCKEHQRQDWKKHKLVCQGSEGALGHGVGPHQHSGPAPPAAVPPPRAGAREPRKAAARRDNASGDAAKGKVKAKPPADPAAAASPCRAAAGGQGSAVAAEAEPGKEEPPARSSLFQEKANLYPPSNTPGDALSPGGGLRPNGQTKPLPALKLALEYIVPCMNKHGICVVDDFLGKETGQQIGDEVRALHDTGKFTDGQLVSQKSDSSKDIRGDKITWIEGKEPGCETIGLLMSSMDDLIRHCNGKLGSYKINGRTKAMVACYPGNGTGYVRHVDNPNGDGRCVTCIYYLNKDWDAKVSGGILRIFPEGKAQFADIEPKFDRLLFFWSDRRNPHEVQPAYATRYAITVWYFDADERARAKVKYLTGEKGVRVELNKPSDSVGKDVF

Test [1] has as its target C326S HA-PHD2 purified from HEK293T cells (human) (UniProt Q9GZT9). Nature of the test: non-reducing SDS-PAGE with immunoblot; tagged PHD2 affinity-purified (Flag or HA gel, peptide elution) from H2O2-treated HEK293T cells, run without DTT; both purified. For orientation: A western blot detects proteins with antibodies after separation by electrophoresis.
Test [2] deals with Flag-tagged PHD2 purified from HEK293T cells (human) (UniProt Q9GZT9). Nature of the test: non-reducing SDS-PAGE with immunoblot; Flag-PHD2 affinity-purified from H2O2-treated HEK293T cells, in the presence of DTT; both purified.
Test [3] concerns the target Prolyl hydroxylase domain protein 2 (PHD2), endogenous (human (endogenous in U2OS, H2030, A549)) (UniProt Q9GZT9). The experiment in a line: non-reducing SDS-PAGE with immunoblot; lysates of oxidant-treated or H-ras V12 cells incubated with 100 mM DTT before the gel, or sample buffer with β-ME.
Test [4] has the same target. The experiment in a line: condition: only cells incubated with 3 mM NAC for 16 h; non-reducing SDS-PAGE with immunoblot; H-ras V12 overexpressing U2OS cells incubated 16 h with 3 mM NAC before lysis.

These are yes or no findings as the source states them, for the method shown.

For “C326S HA-PHD2 purified from HEK293T cells (from UniProt Q9GZT9 1-426)”, the binding result in test [1] is listed as “no binding”.

On to “Flag-tagged PHD2 purified from HEK293T cells (from UniProt Q9GZT9 1-426)”, for which the binding entry in test [2] is given as “no binding (condition: in the presence of DTT)”.

On to “Prolyl hydroxylase domain protein 2 (PHD2), endogenous (from UniProt Q9GZT9 1-426)”, for which the values for the binding result in test [3] and in test [4] were “no binding (condition: lysates incubated with 100 mM DTT)” and “no binding”, respectively.
